No constants are given. Whether binding was seen depends on the method and setting. Some binding calls cover weakened binding; strength is not graded here.
Legend:
[1] = target: cFos bZIP fused to a fluorescent protein (cFos-mNeonGreen and cFos-mCherry) (human) (UniProt P01100); assay: FRET or BRET; mNeonGreen and mCherry fusions at 400 nM each in a 96-well plate; HSABC buffer with 2.5 mM DTT; with and without 500 nM TRE DNA duplex; room temperature, 10 min; excitation scan 450-650 nm, emission 700 nm; difference against the sum of the individual spectra; both purified
[2] = target: cJun bZIP fused to a fluorescent protein (cJun-mNeonGreen and cJun-mCherry) (human) (UniProt P05412); assay: as above

Chains of the proteins cited; added tags and fusions are not shown. Residues count along the entry.
UniProt P01100, residues 137-200: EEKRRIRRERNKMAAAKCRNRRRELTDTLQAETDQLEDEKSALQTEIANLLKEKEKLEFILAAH
UniProt P05412, residues 252-315: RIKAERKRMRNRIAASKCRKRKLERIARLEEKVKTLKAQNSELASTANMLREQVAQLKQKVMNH

Row | binding [1] | binding [2] | Molecule
1 | binds |  | cFos bZIP fused to a fluorescent protein (cFos-mNeonGreen and cFos-mCherry) (from UniProt P01100 137-200) (domain or fragment)
2 |  | binds | cJun bZIP fused to a fluorescent protein (cJun-mNeonGreen and cJun-mCherry) (from UniProt P05412 252-315) (domain or fragment)
3 | no binding |  | UvrA-mNG (protein, UniProt P0A698 1-940) MDKIEVRGARTHNLKNINLVIPRDKLIVVTGLSGSGKSSLAFDTLYAEGQRRYVESLSAYARQFLSLMEKPDVDHIEGLSPAISIEQKSTSHNPRSTVGTITEIHDYLRLLFARVGEPRCPDHDVPLAAQTVSQMVDNVLSQPEGKRLMLLAPIIKERKGEHTKTLENLASQGYIRARIDGEVCDLSDPPKLELQKKHTIEVVVDRFKVRDDLTQRLAESFETALELSGGTAVVADMDDPKAEELLFSANFACPICGYSMRELEPRLFSFNNPAGACPTCDGLGVQQYFDPDRVIQNPELSLAGGAIRGWDRRNFYYFQMLKSLADHYKFDVEAPWGSLSANVHKVVLYGSGKENIEFKYMNDRGDTSIRRHPFEGVLHNMERRYKETESSAVREELAKFISNRPCASCEGTRLRREARHVYVENTPLPAISDMSIGHAMEFFNNLKLAGQRAKIAEKILKEIGDRLKFLVNVGLNYLTLSRSAETLSGGEAQRIRLASQIGAGLVGVMYVLDEPSIGLHQRDNERLLGTLIHLRDLGNTVIVVEHDEDAIRAADHVIDIGPGAGVHGGEVVAEGPLEAIMAVPESLTGQYMSGKRKIEVPKKRVPANPEKVLKLTGARGNNLKDVTLTLPVGLFTCITGVSGSGKSTLINDTLFPIAQRQLNGATIAEPAPYRDIQGLEHFDKVIDIDQSPIGRTPRSNPATYTGVFTPVRELFAGVPESRARGYTPGRFSFNVRGGRCEACQGDGVIKVEMHFLPDIYVPCDQCKGKRYNRETLEIKYKGKTIHEVLDMTIEEAREFFDAVPALARKLQTLMDVGLTYIRLGQSATTLSGGEAQRVKLARELSKRGTGQTLYILDEPTTGLHFADIQQLLDVLHKLRDQGNTIVVIEHNLDVIKTADWIVDLGPEGGSGGGEILVSGTPETVAECEASHTARFLKPML

Reference: publication PMC9364023, “In vitro single molecule and bulk phase studies reveal the AP-1 transcription factor cFos binds to DNA without its partner cJun” (The Journal of Biological Chemistry, 2022)
